Assay results as given in publication doi:10.1101/2020.02.03.932962.

Sequences of proteins named here, by UniProt entry; tags and fusion partners are left off.
UniProt Q15672: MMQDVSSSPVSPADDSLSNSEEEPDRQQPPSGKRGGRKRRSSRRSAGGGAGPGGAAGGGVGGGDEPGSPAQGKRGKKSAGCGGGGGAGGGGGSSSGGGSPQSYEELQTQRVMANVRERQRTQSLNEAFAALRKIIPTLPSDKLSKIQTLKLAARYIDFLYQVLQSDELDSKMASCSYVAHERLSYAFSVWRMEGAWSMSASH
UniProt O95863: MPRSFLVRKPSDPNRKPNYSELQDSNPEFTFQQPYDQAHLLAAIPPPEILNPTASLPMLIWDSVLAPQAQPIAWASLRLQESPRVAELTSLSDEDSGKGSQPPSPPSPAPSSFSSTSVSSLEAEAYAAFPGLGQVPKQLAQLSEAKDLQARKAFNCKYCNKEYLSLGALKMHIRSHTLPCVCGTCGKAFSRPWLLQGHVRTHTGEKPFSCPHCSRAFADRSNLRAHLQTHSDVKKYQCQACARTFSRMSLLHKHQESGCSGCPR

Molecular target: GST-Twist-WR domain (UniProt Q15672)
Test: pull-down

Snail (endogenous, Sum1315 cells) (from UniProt O95863 1-264)
binding: binds

Snail-C-Flag (from UniProt O95863 1-264)
binding: binds

Twist (endogenous, Sum1315 cells) (from UniProt Q15672 1-202)
binding: binds

No constants are given. Whether binding was seen depends on the method and setting. In cells and extracts the contact can be indirect. Binding can be weak; no strength is given.
